Measurements: PubChem BioAssay AID1347076 (National Center for Advancing Translational Sciences (NCATS), 2019)
Among all 400,000 compounds or so, about 13,000 (3.2%) were called active. The inconclusive results got no clear call from the source; some entries with a clear call stand among them for comparison. Calls come from the whole dose curve; as a rule, active = well fitted cell-killing curve with a large enough effect; inconclusive = small, poorly fitted or top-dose-only effect, or effect the other way; inactive = flat fitted curve, though single readings scatter. A potency beside an inconclusive call is a rough fit, not a confirmed value.

Test: qHTS assay for MDR1-selective chemotherapeutics: Primary screen using the drug-selected MDR subline cells KB-V1; note: nearly all actives have a fitted effect of over 60% in size
Settings: KB-V1 MDR cells viability, CellTiter-Glo, 72 h; activity change, negative = cytotoxicity: at 46.1 µM (top of the series)
In short: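 Compound-treated KB-V1 multidrug-resistant cells, 72 h, 37 degrees C; viability by CellTiter-Glo. Fitted qHTS curves give the values.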
% is set by controls: 0 for no effect and ±100 for the full control effect; potency is the fitted concentration of half-maximal effect.

| SMILES | Potency | activity change, negative = cytotoxicity |
| --- | --- | --- |
| CN(C)c1ccc(NC(=O)COC(=O)CNC(=O)c2cccs2)cc1 | inconclusive: 32.6 µM [rising, single point] |  |
| Cc1cnc(NC(=O)CC(C)c2ccccc2)s1 (stereo not given) | inconclusive: 20.6 µM [cytotoxic, single point] |  |
| Cn1c(C(=O)N2CCCC(C(=O)NCCc3ccccc3)C2)cc2sccc21 (stereo not given) | inconclusive: 29.1 µM [cytotoxic, single point] |  |
| Cc1ccc2cccc(NC(=S)NC(=O)c3ccnn3C)c2n1 | inconclusive: 10.3 µM [cytotoxic, partial curve] |  |
| Cc1nn(C)cc1CNC(=O)c1ccc(Br)o1 | inconclusive: 35.5 µM [rising, single point] |  |
| COCCCn1c(-c2ccco2)nc2ccccc2c1=O | inconclusive: 29.1 µM [cytotoxic, single point] |  |
| Cc1onc(-c2ccccc2)c1C(=O)NC1CC1 |  | inactive: 14.8% |
| Nc1nc(C(=O)N2CCOCC2)nn1S(=O)(=O)c1ccc(Cl)cc1 |  | inactive: 16.6% |
| COC(=O)CN(c1cccc(F)c1)S(C)(=O)=O | inconclusive: 29.1 µM [rising, single point] |  |
| COc1ccccc1N1CCN(C(c2cccs2)c2nnnn2C2CCCC2)CC1 (stereo not given) | inconclusive: 11.6 µM [cytotoxic, partial curve] |  |
| CCN(CC)C(=O)c1sc2c(c1C)c(=O)n(CCc1ccccc1)c(=O)n2Cc1ccc(F)cc1Cl | inconclusive: 25.9 µM [rising, single point] |  |
| CCOc1ccc(C(=O)Nc2ccc3nn(-c4ccc(OC)c(Cl)c4)nc3c2)cc1 |  | inactive: -11.9% |
| CCN(CC)CCCn1c(C)cc2c(c1=O)C(c1cc(OC)c(OC)cc1OC)C(C#N)=C(N)O2 (stereo not given) | inconclusive: 14.6 µM [rising, partial curve] |  |
| Cc1ccc(S(=O)(=O)N2CCCCC2)cc1NS(=O)(=O)c1cccc(C(=O)O)c1 |  | inactive: -13.3% |
| O=C1OCCC1Sc1nnc(-c2ccc(Br)cc2)o1 (stereo not given) | inconclusive: 13 µM [rising, partial curve] |  |
| c1ccc(CCNc2nc3ccccc3s2)cc1 | active: 18.4 µM |  |
| O=C(Cn1c(C(F)(F)F)nc2ccccc21)c1ccc(Cl)cc1 | inconclusive: 0.0058 µM [rising, full curve, poor fit] |  |
| COC(=O)/C=C1\SC(=NC(=O)c2cccc(Cl)c2)NC1=O | inconclusive: 29.1 µM [rising, single point] |  |
| CCN(Cc1ccncc1)C(=S)Nc1ccccc1 | inconclusive: 29.1 µM [rising, single point] |  |
| CCCCCC(=O)N1CC2(C)CN(C(=O)CCCCC)CC(C)(C1)C2=O | inconclusive: 29.1 µM [cytotoxic, single point] |  |
| N#Cc1c(NCCCO)nc(-c2ccco2)c2c1CCCC2 |  | inactive: -19.6% |
| O=C1CCCCc2sc(Br)c([N+](=O)[O-])c2N1 |  | inactive: -0.565% |
| CCCCOc1ccc(CNC(=S)N/N=C/c2ccc(OC)c(OC)c2)cc1 | active: 18.4 µM |  |
| COc1cccc(C(NC(C)=O)c2nc(-c3ccc4c(c3)OCO4)cs2)c1 (stereo not given) |  | inactive: -4.54% |

| SMILES | Potency | activity change, negative = cytotoxicity |
| --- | --- | --- |
| CCc1ccc(NC(=S)Nc2cc(C(=O)O)ccc2N2CC3CC(C2)c2cccc(=O)n2C3)cc1 (stereo not given) |  | inactive: 8.88% |
| CCOC(=O)c1c(C)[nH]c(C(=O)COC(=O)c2ccc(O)cc2)c1C | inconclusive: 25.9 µM [cytotoxic, partial curve, poor fit] |  |
| Cc1ccccc1CSCCNC(=O)CSCc1ccc([N+](=O)[O-])cc1 | active: 16.4 µM |  |
| CCN(CC)C(=O)Cn1cc(S(=O)(=O)CC(=O)Nc2ccccc2C)c2ccccc21 |  | inactive: 0.835% |
| O=c1cc(O)n(-c2ccc(Cl)cc2)c(=S)[nH]1 | inconclusive: 29.1 µM [rising, single point] |  |
| CC(=NCCCn1ccnc1)c1c(C)[nH]n(-c2ccc([N+](=O)[O-])cc2)c1=O | inconclusive: 11.6 µM [cytotoxic, partial curve, poor fit] |  |
| CCOC(=O)c1sc(NC(=S)NC(=O)CC(C)C)cc1C |  | inactive: 0% |
| CCc1ccc(O)c(C(=O)c2cnc3cc(-c4ccc(C)cc4)nn3c2)c1 |  | inactive: 3.04% |
| Cc1ccc2cc(CN(CC(C)C)S(=O)(=O)c3cccc4nonc34)c(=O)[nH]c2c1 | inconclusive: 2.06 µM [rising, partial curve, poor fit] |  |
| Cn1cc(CCC(=O)N2CCCC(C(=O)c3cccc4ccccc34)C2)cn1 (stereo not given) | inconclusive: 13 µM [cytotoxic, partial curve] |  |
| O=[N+]([O-])c1cc(S(=O)(=O)N2CCCCC2)ccc1NCc1cccc(Cl)c1 | inconclusive: 20.6 µM [cytotoxic, single point] |  |
| C/C(=N\NC(=O)c1c[nH]c2ccccc12)c1ccc(C)o1 | inconclusive: 23.1 µM [cytotoxic, single point] |  |
| O=C(Nc1ccccc1)c1nnsc1S(=O)c1ccc(Cl)cc1 (stereo not given) |  | inactive: -4.34% |
| OCCC1CN(Cc2cccc(-n3cccn3)c2)CCN1Cc1ccccc1 (stereo not given) | inconclusive: 16.4 µM [cytotoxic, single point] |  |
| CCN1CCCc2cc(CN(CCN3CCOCC3)C(=S)Nc3ccc(C)cc3)ccc21 | inconclusive: 0.164 µM [cytotoxic, full curve] |  |
| COc1ccc(S(=O)(=O)N(C)c2ccc(C(=O)N3CCCCC3)cc2)cc1OC | inconclusive: 8.2 µM [cytotoxic, partial curve, poor fit] |  |
| Cc1cccc(NC(=O)Cn2c(=O)n(Cc3ccccc3)c(=O)c3c(C)c(C)sc32)c1 | active: 5.17 µM |  |
| CC(C)CC(=O)n1nc(-c2cccnc2)nc1NCc1ccc(F)cc1 |  | inactive: 5.9% |
| C=CCN(C(=O)c1csnn1)C(C(=O)NCc1ccc(F)cc1)c1sccc1C (stereo not given) | inconclusive: 8.2 µM [cytotoxic, partial curve] |  |
| Cc1ccccc1NC(=O)c1cccc2nc3ccccc3nc12 | inconclusive: 16.4 µM [cytotoxic, single point] |  |
| Cc1ccc([C@@H]2CC=C(C(=O)O)[C@H](c3ccc(F)cc3)N2S(=O)(=O)c2ccccc2C)cc1 |  | inactive: -0.392% |
| Cc1ccc(S(=O)(=O)N(CC(=O)Nc2cccc(N(C)S(C)(=O)=O)c2)c2ccc(Cl)c(Cl)c2)cc1 | inconclusive: 13 µM [cytotoxic, partial curve] |  |
| Cc1cc(C)cc(Cn2cc(CN3CC(N(C)C)CS3(=O)=O)nn2)c1 (stereo not given) |  | inactive: 34.3% |
| CC(C)NC(=O)c1ccc(-c2ccc(F)c(F)c2)c2ccoc12 | inconclusive: 20.6 µM [cytotoxic, partial curve, poor fit] |  |

| SMILES | Potency | activity change, negative = cytotoxicity |
| --- | --- | --- |
| COc1ccc(S(=O)(=O)N2CCCCC2)cc1NC(=O)C1CCCC1 |  | inactive: 0% |
| CC(C)(C)OC(=O)NCCCC[C@@H](C(=O)N1CCN(C(=O)OC(C)(C)C)CC1)n1cc(C(CO)NC(=O)OC(C)(C)C)nn1 (stereo not given in full) | inconclusive: 20.6 µM [rising, single point] |  |
| COc1ccc2c(c1)[C@H]1[C@H](CO2)[C@H](c2ccccc2)[C@]2(C)C(=O)Nc3cc(OC)c(OC)cc3C(=O)N12 | inconclusive: 29.1 µM [cytotoxic, single point] |  |
| OCCN1CCN(c2ncnc3c2ncn3[C@H]2CN(Cc3ccco3)C[C@@H](CO)O2)CC1 |  | inactive: -0.202% |
| Cc1ccc(C)c(S(=O)(=O)N2CCN(C(=O)CCC(=O)c3cc(C)sc3C)CC2)c1 | inconclusive: 2.59 µM [cytotoxic, partial curve] |  |
| Cc1ccc(-c2nc(-c3ccccc3)no2)c(Cl)c1 | inconclusive: 18.4 µM [cytotoxic, single point] |  |
| COc1cc(C)c(CN2CCN(S(=O)(=O)c3ccc(Cl)s3)CC2)cc1OC | inconclusive: 29.1 µM [cytotoxic, single point] |  |
| Oc1ccc(N=Cc2cc(Br)c(N3CCOCC3)o2)cc1 |  | inactive: 21.5% |
| COc1ccc(NC(=O)CSc2nnc(CNC(=O)COc3ccc(Cl)cc3)o2)cc1 |  | inactive: 23.8% |
| COc1ccc(O)c(/C=N/NC(=O)c2ccc(OCc3cccc(Br)c3)cc2)c1 | active: 3.26 µM |  |
| COc1cc2c(cc1OC)C(C)N(C(=O)c1ccc(Cl)c(S(=O)(=O)N3CCCCC3)c1)CC2 (stereo not given) |  | inactive: -14.9% |
| CCOC(=O)c1ccc(NC(=O)Nc2cccc(C)n2)cc1 | inconclusive: 25.9 µM [cytotoxic, single point] |  |
| CCOC(=O)c1c(-c2ccc(C)cc2)csc1NC(=O)c1cc(-c2ccc(C)c(F)c2)on1 | inconclusive: 29.1 µM [rising, single point] |  |
| NS(=O)(=O)c1cc(C(=O)NCC2CCCCC2)ccc1Cl |  | inactive: -27.3% |
| C/C(=N\NC(=O)c1c(Cl)c(C)nn1C)c1cccc(NC(=O)c2cccc(F)c2)c1 | inconclusive: 1.03 µM [cytotoxic, full curve] |  |
| COc1ccc(C2C(C(=O)OCC(=O)NC(C)(C)C)CCC(=O)N2c2ccc(C)cc2)cc1OC (stereo not given) |  | inconclusive: -47.2% |
| COc1ccc(C(=O)NCc2cccnc2)cc1S(=O)(=O)N1CCCc2ccccc21 | inconclusive: 14.6 µM [cytotoxic, partial curve, poor fit] |  |
| COc1ccc(-c2nc(-c3ccc(Br)o3)no2)cc1 | inconclusive: 29.1 µM [rising, single point] |  |
| Cc1cc(Nc2nc(Cl)c(Cl)cc2Cl)n(-c2ccccc2)n1 | inconclusive: 20.6 µM [cytotoxic, single point] |  |
| CC/C(CC(=O)C(F)(F)F)=N\NC(=O)/C(C#N)=C/N(C)C | inconclusive: 8.2 µM [rising, partial curve] |  |
| Cc1csc2nc(O)c(C(=O)NCC3CCCO3)c(=O)n12 (stereo not given) | inconclusive: 20.6 µM [cytotoxic, partial curve] |  |
| CON(C)c1nc(OCCNC(=O)OCc2ccc(Cl)cc2C)nc(N(C)C)n1 | active: 1.64 µM |  |

Random excerpt: 4 records from the list.

| SMILES | Potency | activity change, negative = cytotoxicity |
| --- | --- | --- |
| Cc1ccc([C@@H]2CC=C(C(=O)O)[C@H](c3ccc(F)cc3)N2S(=O)(=O)c2ccccc2C)cc1 |  | inactive: -0.392% |
| Cc1csc2nc(O)c(C(=O)NCC3CCCO3)c(=O)n12 (stereo not given) | inconclusive: 20.6 µM [cytotoxic, partial curve] |  |
| COc1cc2c(cc1OC)C(C)N(C(=O)c1ccc(Cl)c(S(=O)(=O)N3CCCCC3)c1)CC2 (stereo not given) |  | inactive: -14.9% |
| Cc1ccccc1NC(=O)c1cccc2nc3ccccc3nc12 | inconclusive: 16.4 µM [cytotoxic, single point] |  |
